Assay results as given in the supplement of paper PMC10849652.
The list shows a part of the results.

Sequences of proteins named here, by UniProt entry; tags and fusion partners are left off. A change or cut given only in a name is not applied to a line headed by its entry.
UniProt P48059, whole entry, looked up: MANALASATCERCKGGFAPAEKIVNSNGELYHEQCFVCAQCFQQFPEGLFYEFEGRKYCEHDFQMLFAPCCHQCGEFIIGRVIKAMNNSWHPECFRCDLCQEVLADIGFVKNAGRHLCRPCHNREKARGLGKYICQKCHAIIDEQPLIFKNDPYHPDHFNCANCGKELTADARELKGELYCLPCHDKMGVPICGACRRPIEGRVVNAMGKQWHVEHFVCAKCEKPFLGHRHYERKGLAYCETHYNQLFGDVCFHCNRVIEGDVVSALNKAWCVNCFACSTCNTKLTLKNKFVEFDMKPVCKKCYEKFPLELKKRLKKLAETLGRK
UniProt Q9UIC8: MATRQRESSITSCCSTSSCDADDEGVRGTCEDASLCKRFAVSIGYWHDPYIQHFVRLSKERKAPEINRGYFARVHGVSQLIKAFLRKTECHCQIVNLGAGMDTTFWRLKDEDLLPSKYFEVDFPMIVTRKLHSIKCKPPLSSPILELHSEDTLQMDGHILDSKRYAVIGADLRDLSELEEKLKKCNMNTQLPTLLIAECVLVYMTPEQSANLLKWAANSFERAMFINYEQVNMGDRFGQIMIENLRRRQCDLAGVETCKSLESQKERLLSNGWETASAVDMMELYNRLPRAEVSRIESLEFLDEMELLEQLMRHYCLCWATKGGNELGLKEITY
UniProt P07195, whole entry, looked up: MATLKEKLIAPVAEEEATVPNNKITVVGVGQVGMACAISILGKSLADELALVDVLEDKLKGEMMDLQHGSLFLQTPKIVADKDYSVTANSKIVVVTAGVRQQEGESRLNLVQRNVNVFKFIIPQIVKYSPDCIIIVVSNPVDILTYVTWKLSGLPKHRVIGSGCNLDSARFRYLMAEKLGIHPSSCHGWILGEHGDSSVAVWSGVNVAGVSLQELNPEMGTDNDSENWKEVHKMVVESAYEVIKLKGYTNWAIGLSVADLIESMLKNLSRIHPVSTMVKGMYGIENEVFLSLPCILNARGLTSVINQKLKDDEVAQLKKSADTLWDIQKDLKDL
UniProt Q5T3J3: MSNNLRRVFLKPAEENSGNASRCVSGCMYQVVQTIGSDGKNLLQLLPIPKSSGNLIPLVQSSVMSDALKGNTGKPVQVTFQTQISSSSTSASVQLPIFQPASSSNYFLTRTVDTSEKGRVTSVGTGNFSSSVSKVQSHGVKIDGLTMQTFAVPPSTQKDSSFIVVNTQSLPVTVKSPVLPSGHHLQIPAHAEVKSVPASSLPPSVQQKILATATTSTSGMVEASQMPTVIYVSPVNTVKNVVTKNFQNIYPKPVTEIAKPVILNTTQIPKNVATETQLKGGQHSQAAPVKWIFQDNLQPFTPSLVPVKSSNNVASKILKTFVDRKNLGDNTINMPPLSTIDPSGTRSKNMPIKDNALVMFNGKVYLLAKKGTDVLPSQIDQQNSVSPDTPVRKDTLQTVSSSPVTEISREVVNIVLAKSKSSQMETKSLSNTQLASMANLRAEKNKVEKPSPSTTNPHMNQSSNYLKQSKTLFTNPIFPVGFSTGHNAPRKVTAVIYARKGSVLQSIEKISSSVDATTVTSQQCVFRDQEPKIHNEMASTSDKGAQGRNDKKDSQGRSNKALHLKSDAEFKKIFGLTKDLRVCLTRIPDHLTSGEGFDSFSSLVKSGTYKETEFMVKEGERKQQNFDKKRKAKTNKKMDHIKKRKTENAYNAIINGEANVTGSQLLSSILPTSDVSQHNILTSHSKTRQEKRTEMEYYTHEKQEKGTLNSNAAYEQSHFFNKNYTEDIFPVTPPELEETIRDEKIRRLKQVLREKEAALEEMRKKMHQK
UniProt Q14657: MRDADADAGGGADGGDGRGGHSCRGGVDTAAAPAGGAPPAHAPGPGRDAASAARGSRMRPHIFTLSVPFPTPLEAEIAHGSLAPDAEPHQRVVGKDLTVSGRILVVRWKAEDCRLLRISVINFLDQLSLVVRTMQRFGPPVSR
UniProt P83111: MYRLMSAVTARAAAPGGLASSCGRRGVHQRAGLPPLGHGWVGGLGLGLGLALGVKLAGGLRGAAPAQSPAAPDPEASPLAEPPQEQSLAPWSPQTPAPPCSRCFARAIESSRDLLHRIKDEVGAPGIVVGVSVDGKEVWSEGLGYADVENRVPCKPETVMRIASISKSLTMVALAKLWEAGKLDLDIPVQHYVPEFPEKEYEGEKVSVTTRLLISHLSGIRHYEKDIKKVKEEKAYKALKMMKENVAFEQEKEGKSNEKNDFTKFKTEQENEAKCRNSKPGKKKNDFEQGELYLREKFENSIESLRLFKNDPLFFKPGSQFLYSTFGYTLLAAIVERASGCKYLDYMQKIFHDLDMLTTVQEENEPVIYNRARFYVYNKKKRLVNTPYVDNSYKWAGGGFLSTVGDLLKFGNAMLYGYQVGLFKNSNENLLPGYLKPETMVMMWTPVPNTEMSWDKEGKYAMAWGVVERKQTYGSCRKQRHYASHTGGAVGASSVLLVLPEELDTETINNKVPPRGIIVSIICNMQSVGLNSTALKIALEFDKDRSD
UniProt P18858, whole entry, looked up: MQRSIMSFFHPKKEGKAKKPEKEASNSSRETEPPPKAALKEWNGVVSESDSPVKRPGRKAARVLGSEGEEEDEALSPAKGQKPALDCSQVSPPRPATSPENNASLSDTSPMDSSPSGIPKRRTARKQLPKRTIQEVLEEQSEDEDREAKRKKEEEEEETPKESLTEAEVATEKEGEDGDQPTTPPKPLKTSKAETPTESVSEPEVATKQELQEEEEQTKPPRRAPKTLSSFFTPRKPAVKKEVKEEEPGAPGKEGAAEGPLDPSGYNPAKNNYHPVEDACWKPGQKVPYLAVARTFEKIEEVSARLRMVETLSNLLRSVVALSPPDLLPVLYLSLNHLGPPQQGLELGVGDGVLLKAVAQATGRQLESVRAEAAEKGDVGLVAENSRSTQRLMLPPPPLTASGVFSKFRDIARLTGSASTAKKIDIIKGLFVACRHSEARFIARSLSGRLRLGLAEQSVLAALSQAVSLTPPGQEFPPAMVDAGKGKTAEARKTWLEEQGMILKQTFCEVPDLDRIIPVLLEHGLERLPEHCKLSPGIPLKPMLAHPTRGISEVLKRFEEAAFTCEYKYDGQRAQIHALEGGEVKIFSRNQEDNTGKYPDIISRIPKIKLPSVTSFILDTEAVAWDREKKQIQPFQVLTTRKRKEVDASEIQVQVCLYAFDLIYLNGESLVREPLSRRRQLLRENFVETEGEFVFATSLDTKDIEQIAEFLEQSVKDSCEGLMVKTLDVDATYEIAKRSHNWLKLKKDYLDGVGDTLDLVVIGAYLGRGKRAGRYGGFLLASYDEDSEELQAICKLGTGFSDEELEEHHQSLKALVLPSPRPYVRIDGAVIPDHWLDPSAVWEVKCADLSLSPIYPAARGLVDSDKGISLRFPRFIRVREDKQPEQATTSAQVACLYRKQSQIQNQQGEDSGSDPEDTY
UniProt Q6ZN17: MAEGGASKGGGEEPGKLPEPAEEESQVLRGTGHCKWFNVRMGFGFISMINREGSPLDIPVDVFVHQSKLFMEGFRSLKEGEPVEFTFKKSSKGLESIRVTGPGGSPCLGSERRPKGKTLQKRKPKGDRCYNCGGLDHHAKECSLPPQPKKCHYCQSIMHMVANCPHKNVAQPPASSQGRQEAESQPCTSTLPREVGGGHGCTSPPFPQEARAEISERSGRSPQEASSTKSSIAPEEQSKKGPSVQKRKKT
UniProt Q53H82: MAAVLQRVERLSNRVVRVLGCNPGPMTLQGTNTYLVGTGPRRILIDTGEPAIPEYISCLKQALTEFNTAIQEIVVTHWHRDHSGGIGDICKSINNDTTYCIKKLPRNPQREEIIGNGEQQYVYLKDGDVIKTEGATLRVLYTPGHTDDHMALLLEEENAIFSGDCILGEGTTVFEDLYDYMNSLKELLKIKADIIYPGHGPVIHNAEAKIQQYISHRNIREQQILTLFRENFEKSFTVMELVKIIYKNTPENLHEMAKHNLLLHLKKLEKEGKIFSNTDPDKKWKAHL
UniProt O95202: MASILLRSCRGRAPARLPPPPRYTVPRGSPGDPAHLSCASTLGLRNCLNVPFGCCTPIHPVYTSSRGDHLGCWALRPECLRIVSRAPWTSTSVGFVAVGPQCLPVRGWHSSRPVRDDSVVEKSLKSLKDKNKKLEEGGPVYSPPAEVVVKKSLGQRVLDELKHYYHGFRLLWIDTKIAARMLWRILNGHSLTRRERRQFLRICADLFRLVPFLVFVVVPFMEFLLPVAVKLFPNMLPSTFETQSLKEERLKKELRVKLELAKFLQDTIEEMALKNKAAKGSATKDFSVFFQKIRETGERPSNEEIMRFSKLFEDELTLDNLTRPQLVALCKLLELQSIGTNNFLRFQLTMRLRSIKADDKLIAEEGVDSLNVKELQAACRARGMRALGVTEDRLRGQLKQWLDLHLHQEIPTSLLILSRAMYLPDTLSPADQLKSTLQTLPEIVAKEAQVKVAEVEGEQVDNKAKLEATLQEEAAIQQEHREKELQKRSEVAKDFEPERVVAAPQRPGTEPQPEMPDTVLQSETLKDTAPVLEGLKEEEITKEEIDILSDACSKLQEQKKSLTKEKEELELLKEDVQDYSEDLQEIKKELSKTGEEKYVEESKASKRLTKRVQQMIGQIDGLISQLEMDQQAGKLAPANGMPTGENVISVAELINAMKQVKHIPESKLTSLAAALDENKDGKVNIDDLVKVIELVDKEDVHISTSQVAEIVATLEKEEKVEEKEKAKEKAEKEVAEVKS
UniProt Q9H9A6: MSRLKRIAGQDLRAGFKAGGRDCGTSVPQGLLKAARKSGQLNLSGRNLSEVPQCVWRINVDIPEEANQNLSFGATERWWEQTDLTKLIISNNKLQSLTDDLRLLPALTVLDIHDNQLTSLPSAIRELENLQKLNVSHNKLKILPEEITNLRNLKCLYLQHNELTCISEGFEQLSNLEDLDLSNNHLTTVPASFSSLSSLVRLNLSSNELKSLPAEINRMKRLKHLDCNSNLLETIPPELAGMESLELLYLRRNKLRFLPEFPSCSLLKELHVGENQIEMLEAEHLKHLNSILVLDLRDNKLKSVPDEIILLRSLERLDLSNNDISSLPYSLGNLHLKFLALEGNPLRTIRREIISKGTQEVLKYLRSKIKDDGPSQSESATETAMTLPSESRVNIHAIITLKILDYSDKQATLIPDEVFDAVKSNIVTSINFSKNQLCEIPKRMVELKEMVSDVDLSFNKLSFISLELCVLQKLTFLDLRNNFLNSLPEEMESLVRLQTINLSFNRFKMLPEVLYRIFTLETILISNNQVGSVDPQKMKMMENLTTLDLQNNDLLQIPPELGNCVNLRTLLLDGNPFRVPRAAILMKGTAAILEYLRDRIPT
UniProt Q86U70: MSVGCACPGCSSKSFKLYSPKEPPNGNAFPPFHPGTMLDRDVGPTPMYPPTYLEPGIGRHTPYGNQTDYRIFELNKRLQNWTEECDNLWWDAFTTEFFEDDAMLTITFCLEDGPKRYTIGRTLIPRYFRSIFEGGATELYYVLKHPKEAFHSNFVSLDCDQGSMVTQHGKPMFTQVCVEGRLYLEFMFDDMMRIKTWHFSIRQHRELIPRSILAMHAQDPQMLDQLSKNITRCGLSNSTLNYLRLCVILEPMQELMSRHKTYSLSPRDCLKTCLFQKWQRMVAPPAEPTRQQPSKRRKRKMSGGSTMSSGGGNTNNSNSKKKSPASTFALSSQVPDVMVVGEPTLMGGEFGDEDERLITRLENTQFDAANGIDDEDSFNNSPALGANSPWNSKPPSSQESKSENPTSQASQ
UniProt Q8NF37: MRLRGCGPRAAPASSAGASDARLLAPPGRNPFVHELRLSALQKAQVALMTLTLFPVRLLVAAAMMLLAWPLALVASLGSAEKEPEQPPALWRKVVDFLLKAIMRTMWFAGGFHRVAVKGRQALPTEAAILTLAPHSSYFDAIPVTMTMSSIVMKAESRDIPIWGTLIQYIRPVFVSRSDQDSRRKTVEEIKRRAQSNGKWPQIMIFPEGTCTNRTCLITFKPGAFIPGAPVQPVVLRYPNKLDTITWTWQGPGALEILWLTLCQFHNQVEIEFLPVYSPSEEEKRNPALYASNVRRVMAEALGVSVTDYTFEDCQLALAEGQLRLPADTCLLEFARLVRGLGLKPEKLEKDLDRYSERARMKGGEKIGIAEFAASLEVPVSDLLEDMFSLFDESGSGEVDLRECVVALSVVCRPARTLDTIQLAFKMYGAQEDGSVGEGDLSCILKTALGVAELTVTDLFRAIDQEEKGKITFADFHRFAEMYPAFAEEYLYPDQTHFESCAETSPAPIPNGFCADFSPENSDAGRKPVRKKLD
UniProt Q9H0V9: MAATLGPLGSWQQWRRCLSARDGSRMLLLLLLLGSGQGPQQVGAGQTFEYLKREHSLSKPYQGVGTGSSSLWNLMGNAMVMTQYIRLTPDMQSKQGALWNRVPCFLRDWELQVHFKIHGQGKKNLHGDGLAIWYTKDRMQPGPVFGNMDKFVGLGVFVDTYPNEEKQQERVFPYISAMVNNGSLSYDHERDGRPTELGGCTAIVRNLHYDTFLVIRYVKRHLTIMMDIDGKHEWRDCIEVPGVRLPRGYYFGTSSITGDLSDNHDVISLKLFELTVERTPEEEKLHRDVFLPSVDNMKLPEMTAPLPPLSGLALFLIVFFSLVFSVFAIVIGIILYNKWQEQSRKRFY

Experiments:
Assay in all cases: log2 fold change, soluble protein after heating vs DMSO (PISA); higher = thermal stabilisation; K562 cells, 10 uM, 30 min; active = over 0.2 and 3.5 SD of the protein, either way, in both replicates (recomputed)
[1] = compound: CC[C@@H]1C(=O)N(C)c2cnc(Nc3ccc(C(=O)NC4CCN(C)CC4)cc3OC)nc2N1C1CCCC1
Outline: (§1)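 K562 cells (2×10^6 cells/mL) were treated with 10 μM compound for 30 min, and aliquots were heated for 3 min over 48°C-58°C. Pooled aliquots were extracted in PBS with 0.5% NP-40 at 4°C, and the supernatant after 21,000xg for 90 min was measured by TMTpro 16plex LC-MS/MS with channel sums equalised. Reported thermal stability, relative to control samples and from duplicates, is a log2 fold change.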

volasertib = compound: CC[C@@H]1C(=O)N(C)c2cnc(Nc3ccc(C(=O)N[C@H]4CC[C@H](N5CCN(CC6CC6)CC5)CC4)cc3OC)nc2N1C(C)C [volasertib]
Outline: as §1

[2] = compound: CC[C@H](C)N1C=C(C2=C(C=C(C=C21)C3=CN=C(C=C3)N4CCNCC4)C(=O)NCC5=C(C=C(NC5=O)C)C)C
Outline: as §1

epoxomicin = compound: CC[C@H](C)[C@@H](C(=O)N[C@@H]([C@@H](C)O)C(=O)N[C@@H](CC(C)C)C(=O)[C@]1(CO1)C)NC(=O)[C@H]([C@@H](C)CC)N(C)C(=O)C [epoxomicin]
Outline: as §1

[3] = compound: CCn1c(C(=O)N(C2CC2)C2CC2)cc2c3c(ncn3C)c(Nc3cc(C)n(C)n3)nc21
Outline: as §1

[4] = compound: CCn1cc(-c2ccnc3[nH]c(-c4cccc(CN(C)C)c4)cc23)c(-c2ccc(NC(=O)N(C)C)cc2)n1
Outline: as §1

[5] = compound: CN(C)CC(=O)Nc1ccc2[nH]c(=O)c3ccccc3c2c1
Outline: as §1

rosiglitazone = compound: CN(CCOC1=CC=C(C=C1)C[C@H]2C(=O)NC(=O)S2)C3=CC=CC=N3 (racemic) [rosiglitazone]
Outline: as §1

[6] = compound: CN1C2=C(C3=C1C(=O)N(N=C3)CC4=CC(=CC=C4)N)SC(=C2)S(=O)C
Outline: as §1

[7] = compound: CN1CCC(CNc2ccc3ncc(-c4cccc(OC(F)(F)F)c4)n3n2)CC1
Outline: as §1

saracatinib = compound: CN1CCN(CCOc2cc(OC3CCOCC3)c3c(Nc4c(Cl)ccc5c4OCO5)ncnc3c2)CC1 [saracatinib]
Outline: as §1

sotrastaurin = compound: CN1CCN(c2nc(C3=C(c4c[nH]c5ccccc45)C(=O)NC3=O)c3ccccc3n2)CC1 [sotrastaurin]
Outline: as §1

alvocidib = compound: CN1CC[C@H](c2c(O)cc(O)c3c(=O)cc(-c4ccccc4Cl)oc23)[C@H](O)C1 [alvocidib]
Outline: as §1

Tubastatin A = compound: CN1CCc2c(c3ccccc3n2Cc2ccc(C(=O)NO)cc2)C1 [Tubastatin A]
Outline: as §1

[8] = compound: CNC(=O)C1=CC=CC=C1NC2=NC(=NC=C2Cl)NC3=C(C=C(C=C3)N4CCOCC4)OC
Outline: as §1

defactinib = compound: CNC(=O)c1ccc(Nc2ncc(C(F)(F)F)c(NCc3nccnc3N(C)S(C)(=O)=O)n2)cc1 [defactinib]
Outline: as §1

rucaparib = compound: CNCc1ccc(-c2[nH]c3cc(F)cc4c3c2CCNC4=O)cc1 [rucaparib]
Outline: as §1

[9] = compound: CNc1nc(-c2ccc3c(N)n[nH]c3c2)cc(N2C[C@@H](C(=O)NC3CCCCC3)CC[C@H]2C)n1
Outline: as §1

encorafenib = compound: COC(=O)N[C@@H](C)CNc1nccc(-c2cn(C(C)C)nc2-c2cc(Cl)cc(NS(C)(=O)=O)c2F)n1 [encorafenib]
Outline: as §1

[10] = compound: COC(=O)[C@H](CCSC)NC(=O)C1=C(C=C(C=C1)NC[C@H](CS)N)C2=CC=CC=C2
Outline: as §1

Measured: log2 fold change

LIMS1 isoform 3 (UniProt P48059)
inactive: [1] -0.009 | volasertib 0.013 | [2] -0.006 | epoxomicin 0.038 | [3] 0.02 | [4] -0.028 | [5] -0.026 | rosiglitazone -0.002 | [6] -0.042 | [7] -0.062 | saracatinib 0.008 | sotrastaurin 0 | alvocidib 0.01 | Tubastatin A 0.022 | [8] -0.017 | defactinib -0.009 | rucaparib -0.083 | [9] -0.032 | encorafenib 0.006 | [10] 0.019

LCMT1 (UniProt Q9UIC8)
inactive: [1] -0.014 | volasertib -0.001 | [2] 0.011 | epoxomicin 0.001 | [3] 0.003 | [4] -0.106 | [5] 0.005 | rosiglitazone 0.033 | [6] -0.05 | [7] 0.015 | saracatinib 0.002 | sotrastaurin 0.056 | alvocidib -0.023 | Tubastatin A -0.037 | [8] 0.01 | defactinib -0.025 | rucaparib -0.055 | [9] -0.013 | encorafenib 0.012 | [10] -0.056

LDHB (UniProt P07195)
inactive: [1] 0.003 | volasertib 0.024 | [2] -0.035 | epoxomicin -0.007 | [3] 0.033 | [4] -0.019 | [5] -0.02 | rosiglitazone 0.007 | [6] -0.061 | [7] 0.035 | saracatinib 0.013 | sotrastaurin 0.052 | alvocidib -0.01 | Tubastatin A -0.013 | [8] -0.037 | defactinib 0.013 | rucaparib -0.008 | [9] -0.019 | encorafenib -0.023 | [10] 0.026

LRIF1 (UniProt Q5T3J3)
inactive: [1] 0.06 | volasertib 0.044 | [2] -0.032 | epoxomicin -0.055 | [3] -0.02 | [4] 0.055 | [5] 0.027 | rosiglitazone -0.096 | [6] -0.123 | [7] -0.062 | saracatinib 0.071 | sotrastaurin 0.087 | alvocidib -0.19 | Tubastatin A 0.059 | [8] -0.07 | defactinib -0.03 | rucaparib 0.075 | [9] -0.035 | encorafenib -0.11 | [10] -0.107

LAGE3 (UniProt Q14657)
inactive: [1] 0.055 | volasertib 0.013 | [2] -0.052 | epoxomicin 0.096 | [3] 0.074 | [4] -0.015 | [5] 0.092 | rosiglitazone 0.026 | [6] -0.085 | [7] -0.007 | saracatinib 0.053 | sotrastaurin -0.015 | alvocidib 0.011 | Tubastatin A -0.005 | [8] -0.024 | defactinib -0.035 | rucaparib -0.049 | [9] -0.003 | encorafenib -0.045 | [10] 0.039

LACTB (UniProt P83111)
inactive: [1] 0.005 | volasertib -0.132 | [2] -0.076 | epoxomicin -0.067 | [3] 0.073 | [4] 0.065 | [5] -0.143 | rosiglitazone -0.044 | [6] 0.218 | [7] 0.007 | saracatinib -0.078 | sotrastaurin -0.121 | alvocidib 0.1 | Tubastatin A -0.015 | [8] -0.004 | defactinib 0.074 | rucaparib 0.149 | [9] -0.035 | encorafenib 0.007 | [10] -0.254

LIG1 (UniProt P18858)
inactive: [1] -0.119 | volasertib -0.205 | [2] 0.099 | epoxomicin 0.092 | [3] -0.041 | [4] -0.145 | [5] 0.142 | rosiglitazone 0.016 | [6] -0.059 | [7] -0.141 | saracatinib -0.05 | sotrastaurin -0.168 | alvocidib -0.173 | Tubastatin A 0.102 | [8] 0.033 | defactinib -0.3 | rucaparib -0.015 | [9] 0.106 | encorafenib 0.037 | [10] -0.07

LIN28B (UniProt Q6ZN17)
inactive: [1] 0.131 | volasertib 0.096 | [2] 0.02 | epoxomicin -0.139 | [3] -0.074 | [4] 0.046 | [5] -0.066 | rosiglitazone -0.063 | [6] 0.135 | [7] 0.077 | saracatinib -0.009 | sotrastaurin 0.028 | alvocidib 0.156 | Tubastatin A 0.018 | [8] -0.019 | defactinib 0.106 | rucaparib 0.172 | [9] 0.025 | encorafenib 0.064 | [10] 0.012

LACTB2 (UniProt Q53H82)
inactive: [1] -0.006 | volasertib 0.056 | [2] 0.007 | epoxomicin 0.019 | [3] 0.007 | [4] -0.01 | [5] -0.026 | rosiglitazone 0.01 | [6] 0.008 | [7] 0.015 | saracatinib 0.084 | sotrastaurin -0.031 | alvocidib -0.022 | Tubastatin A -0.023 | [8] -0.038 | defactinib 0.003 | rucaparib -0.028 | [9] -0.023 | encorafenib 0.004 | [10] 0.027

LONP1 (UniProt P36776)
inactive: [1] 0.028 | volasertib 0.061 | [2] -0.004 | epoxomicin 0.003 | [3] 0.005 | [4] -0.011 | [5] -0.011 | rosiglitazone 0.002 | [6] -0.036 | [7] 0.081 | saracatinib 0.03 | sotrastaurin 0.034 | alvocidib -0.011 | Tubastatin A -0.015 | [8] 0.041 | defactinib -0.024 | rucaparib -0.036 | [9] -0.055 | encorafenib -0.01 | [10] 0.012

KYAT1 (UniProt Q16773)
inactive: [1] 0.021 | volasertib -0.075 | [2] -0.008 | epoxomicin -0.026 | [3] -0.004 | [4] -0.054 | [5] 0.066 | rosiglitazone -0.001 | [6] -0.05 | [7] -0.045 | saracatinib 0.027 | sotrastaurin -0.001 | alvocidib 0.019 | Tubastatin A 0.167 | [8] -0.064 | defactinib -0.027 | rucaparib -0.062 | [9] -0.01 | encorafenib 0.011 | [10] 0.002

LETM1 (UniProt O95202)
inactive: [1] -0.093 | volasertib -0.085 | [2] 0.016 | epoxomicin 0.044 | [3] 0.035 | [4] -0.041 | [5] 0.021 | rosiglitazone 0.024 | [6] -0.065 | [7] -0.205 | saracatinib 0.005 | sotrastaurin -0.012 | alvocidib -0.029 | Tubastatin A -0.031 | [8] 0.026 | defactinib -0.059 | rucaparib -0.049 | [9] -0.043 | encorafenib 0.011 | [10] 0.018

Copied from above (4 entries):
LAGE3 (UniProt Q14657)
inactive: [1] 0.055 | volasertib 0.013 | [2] -0.052 | epoxomicin 0.096 | [3] 0.074 | [4] -0.015 | [5] 0.092 | rosiglitazone 0.026 | [6] -0.085 | [7] -0.007 | saracatinib 0.053 | sotrastaurin -0.015 | alvocidib 0.011 | Tubastatin A -0.005 | [8] -0.024 | defactinib -0.035 | rucaparib -0.049 | [9] -0.003 | encorafenib -0.045 | [10] 0.039

LACTB (UniProt P83111)
inactive: [1] 0.005 | volasertib -0.132 | [2] -0.076 | epoxomicin -0.067 | [3] 0.073 | [4] 0.065 | [5] -0.143 | rosiglitazone -0.044 | [6] 0.218 | [7] 0.007 | saracatinib -0.078 | sotrastaurin -0.121 | alvocidib 0.1 | Tubastatin A -0.015 | [8] -0.004 | defactinib 0.074 | rucaparib 0.149 | [9] -0.035 | encorafenib 0.007 | [10] -0.254

LIG1 (UniProt P18858)
inactive: [1] -0.119 | volasertib -0.205 | [2] 0.099 | epoxomicin 0.092 | [3] -0.041 | [4] -0.145 | [5] 0.142 | rosiglitazone 0.016 | [6] -0.059 | [7] -0.141 | saracatinib -0.05 | sotrastaurin -0.168 | alvocidib -0.173 | Tubastatin A 0.102 | [8] 0.033 | defactinib -0.3 | rucaparib -0.015 | [9] 0.106 | encorafenib 0.037 | [10] -0.07

LIN28B (UniProt Q6ZN17)
inactive: [1] 0.131 | volasertib 0.096 | [2] 0.02 | epoxomicin -0.139 | [3] -0.074 | [4] 0.046 | [5] -0.066 | rosiglitazone -0.063 | [6] 0.135 | [7] 0.077 | saracatinib -0.009 | sotrastaurin 0.028 | alvocidib 0.156 | Tubastatin A 0.018 | [8] -0.019 | defactinib 0.106 | rucaparib 0.172 | [9] 0.025 | encorafenib 0.064 | [10] 0.012

(next part)

LRRC40 (UniProt Q9H9A6)
inactive: [1] -0.057 | volasertib -0.314 | [2] 0.132 | epoxomicin -0.002 | [3] -0.055 | [4] -0.087 | [5] 0.097 | rosiglitazone 0.053 | [6] 0.047 | [7] -0.206 | saracatinib -0.064 | sotrastaurin -0.093 | alvocidib -0.027 | Tubastatin A 0.014 | [8] 0.018 | defactinib -0.116 | rucaparib 0.02 | [9] 0.077 | encorafenib 0.043 | [10] -0.065

LDB1 (UniProt Q86U70)
inactive: [1] 0.028 | volasertib 0.027 | [2] -0.021 | epoxomicin -0.013 | [3] -0.019 | [4] -0.031 | [5] -0.012 | rosiglitazone 0.02 | [6] 0.011 | [7] 0.054 | saracatinib 0.063 | sotrastaurin 0.019 | alvocidib 0.001 | Tubastatin A -0.019 | [8] -0.05 | defactinib -0.017 | rucaparib 0.008 | [9] -0.032 | encorafenib -0.016 | [10] 0.003

LPCAT1 (UniProt Q8NF37)
inactive: [1] 0.017 | volasertib -0.228 | [2] 0.015 | epoxomicin -0.031 | [3] 0.005 | [4] -0.018 | [5] 0.057 | rosiglitazone 0.008 | [6] -0.004 | [7] -0.092 | saracatinib 0.023 | sotrastaurin 0.025 | alvocidib -0.06 | Tubastatin A 0.152 | [8] -0.01 | defactinib -0.031 | rucaparib -0.024 | [9] -0.012 | encorafenib 0.044 | [10] 0.031

LMAN2L isoform 2 (UniProt Q9H0V9)
inactive: [1] -0.005 | volasertib -0.037 | [2] 0.016 | epoxomicin 0.01 | [3] 0.011 | [4] -0.154 | [5] 0.008 | rosiglitazone 0.005 | [6] 0.042 | [7] -0.101 | saracatinib -0.016 | sotrastaurin -0.024 | alvocidib -0.051 | Tubastatin A 0.014 | [8] -0.02 | defactinib -0.02 | rucaparib 0.059 | [9] -0.03 | encorafenib -0.064 | [10] 0.029
